In this assay the target is T1, Rai14 (retinoic acid induced protein 14) (rat (endogenous in testis)) (UniProt Q5U312).
T1 sequence: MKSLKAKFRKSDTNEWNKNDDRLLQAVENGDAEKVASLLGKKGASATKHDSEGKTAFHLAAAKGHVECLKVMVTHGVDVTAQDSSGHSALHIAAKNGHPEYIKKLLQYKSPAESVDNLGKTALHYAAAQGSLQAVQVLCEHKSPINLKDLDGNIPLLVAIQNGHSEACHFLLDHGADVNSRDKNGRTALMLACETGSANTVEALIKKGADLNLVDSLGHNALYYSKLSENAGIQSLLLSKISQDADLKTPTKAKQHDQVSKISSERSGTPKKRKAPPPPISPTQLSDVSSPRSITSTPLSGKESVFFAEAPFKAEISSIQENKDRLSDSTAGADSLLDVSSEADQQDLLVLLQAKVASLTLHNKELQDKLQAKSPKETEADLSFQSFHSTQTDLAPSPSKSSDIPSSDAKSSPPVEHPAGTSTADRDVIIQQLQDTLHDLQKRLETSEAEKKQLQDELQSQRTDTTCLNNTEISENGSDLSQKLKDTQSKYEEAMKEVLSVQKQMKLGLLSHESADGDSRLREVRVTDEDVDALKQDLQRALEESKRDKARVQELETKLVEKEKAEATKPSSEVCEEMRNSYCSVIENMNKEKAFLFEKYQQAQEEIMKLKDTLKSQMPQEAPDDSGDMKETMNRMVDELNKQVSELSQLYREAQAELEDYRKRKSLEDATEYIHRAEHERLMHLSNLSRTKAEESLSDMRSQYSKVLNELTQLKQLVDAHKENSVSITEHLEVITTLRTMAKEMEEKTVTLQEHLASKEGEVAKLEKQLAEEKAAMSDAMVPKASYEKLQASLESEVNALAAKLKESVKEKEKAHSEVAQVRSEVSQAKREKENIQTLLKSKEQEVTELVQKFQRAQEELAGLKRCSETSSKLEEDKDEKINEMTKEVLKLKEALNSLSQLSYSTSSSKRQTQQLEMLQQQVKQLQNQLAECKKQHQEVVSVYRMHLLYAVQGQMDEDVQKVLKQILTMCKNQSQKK
The assay is described as follows: co-IP; anti-Rai14 IgG (2 µg) as precipitating antibody, immunoblot for the partner; rat testis lysate (for Figure 1D the lysate is not named in the legend); untreated rats.

No constants are given. Whether binding was seen depends on the method and setting. Binding seen in cells or lysates may run through a third protein.

On to drebrin E (rat (endogenous in testis)), for which the binding result is “no binding”.

For the origin of these results see publication PMC3614988.
